Measured values as given in publication PMC10313822, “Disruption of ER ion homeostasis maintained by an ER anion channel CLCC1 contributes to ALS-like pathologies” (Cell Research, 2023).
These are yes or no findings as the source states them, for the method shown. For some assays here: Binding seen in cells or lysates may run through a third protein. Some entries that bind do so weakly or less than the wild type. For some assays here: Where a sequence is shown, tags or fusion partners need not be part of it. Each block holds one binder with its values, some of them ahead of it.

Tests used:
[1] = biological target: T1, exogenously tagged CLCC1 (exogenous mCLCC1 of Fig. S2b) (mouse) (UniProt Q99LI2); experiment: co-IP; exogenously tagged CLCC1 with endogenous CLCC1; lysis in TBS with 1% DDM, antibody on Dynabeads, washes with 0.025% DDM
T1 sequence: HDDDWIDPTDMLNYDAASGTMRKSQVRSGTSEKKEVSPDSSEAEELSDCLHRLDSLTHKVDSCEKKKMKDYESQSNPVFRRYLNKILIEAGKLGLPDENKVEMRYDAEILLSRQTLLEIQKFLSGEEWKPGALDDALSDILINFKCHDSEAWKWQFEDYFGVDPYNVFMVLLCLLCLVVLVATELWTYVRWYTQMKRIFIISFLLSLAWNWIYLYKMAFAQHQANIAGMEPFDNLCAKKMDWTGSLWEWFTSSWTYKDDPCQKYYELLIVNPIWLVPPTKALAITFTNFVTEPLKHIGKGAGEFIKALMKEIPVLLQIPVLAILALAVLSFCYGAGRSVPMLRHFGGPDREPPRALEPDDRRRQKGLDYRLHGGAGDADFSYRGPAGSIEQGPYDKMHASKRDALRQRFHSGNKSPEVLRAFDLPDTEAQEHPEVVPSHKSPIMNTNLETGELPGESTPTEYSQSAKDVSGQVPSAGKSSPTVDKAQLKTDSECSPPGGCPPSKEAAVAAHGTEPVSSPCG

[2] = biological target: T2, exogenous WT mouse CLCC1, doxycycline-induced in 293FT cells (mouse) (UniProt Q99LI2); experiment: co-IP; 293FT cells stably carrying doxycycline-inducible mCLCC1 (WT or K298A), induced with Dox; exogenous mCLCC1 with endogenous hCLCC1
T2 sequence: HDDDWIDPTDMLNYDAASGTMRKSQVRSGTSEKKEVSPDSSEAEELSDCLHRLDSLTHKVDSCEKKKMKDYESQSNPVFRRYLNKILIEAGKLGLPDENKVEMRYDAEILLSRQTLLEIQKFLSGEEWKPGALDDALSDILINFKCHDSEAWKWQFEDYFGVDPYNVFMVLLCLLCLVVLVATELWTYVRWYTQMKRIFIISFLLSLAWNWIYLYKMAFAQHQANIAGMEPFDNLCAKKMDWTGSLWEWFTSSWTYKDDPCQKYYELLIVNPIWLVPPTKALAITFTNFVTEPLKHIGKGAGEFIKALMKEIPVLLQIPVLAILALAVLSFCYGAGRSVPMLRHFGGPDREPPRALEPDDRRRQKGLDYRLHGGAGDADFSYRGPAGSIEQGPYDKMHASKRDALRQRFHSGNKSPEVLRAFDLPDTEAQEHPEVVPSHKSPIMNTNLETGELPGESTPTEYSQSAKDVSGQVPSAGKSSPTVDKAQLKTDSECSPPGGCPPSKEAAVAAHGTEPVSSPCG

[3] = biological target: T3, exogenous K298A mutant mouse CLCC1, doxycycline-induced in 293FT cells (mouse) (UniProt Q99LI2); experiment: as above
T3 sequence: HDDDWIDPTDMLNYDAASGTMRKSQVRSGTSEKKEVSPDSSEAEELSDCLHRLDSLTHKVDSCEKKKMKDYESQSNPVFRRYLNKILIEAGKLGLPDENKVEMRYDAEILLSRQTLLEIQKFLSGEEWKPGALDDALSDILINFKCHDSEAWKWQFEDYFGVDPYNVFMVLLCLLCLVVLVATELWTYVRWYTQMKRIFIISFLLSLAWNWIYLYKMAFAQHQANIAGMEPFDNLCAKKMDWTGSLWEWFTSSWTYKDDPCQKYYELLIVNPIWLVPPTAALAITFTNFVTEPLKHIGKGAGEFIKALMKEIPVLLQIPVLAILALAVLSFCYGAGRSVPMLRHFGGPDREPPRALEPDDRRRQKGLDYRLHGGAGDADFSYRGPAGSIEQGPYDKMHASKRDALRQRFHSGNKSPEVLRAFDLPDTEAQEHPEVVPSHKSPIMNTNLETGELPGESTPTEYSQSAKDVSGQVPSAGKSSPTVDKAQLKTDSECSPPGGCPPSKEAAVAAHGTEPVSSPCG

[4] = biological target: differentially tagged CLCC1 co-expressed in the same cells (not stated (human or mouse cDNA cloned)) (UniProt Q99LI2); experiment: co-IP; differentially tagged CLCC1 co-expressed in the same cells; lysis in TBS with 1% DDM, antibody on Dynabeads, washes with 0.025% DDM
[5] = biological target: purified full-length CLCC1 (native gel) (not stated (human or mouse cDNA cloned)) (UniProt Q99LI2); experiment: native gel or EMSA; native gel of purified full-length CLCC1; both purified

binding [1]: binds | binding [2]: binds | binding [3]: binds
B1: endogenous human CLCC1 (Chloride Channel CLIC Like 1) (protein, UniProt Q96S66-1 19-551)
chain: HDDDWIDPTDMLNYDAASGTMRKSQAKYGISGEKDVSPDLSCADEISECYHKLDSLTYKIDECEKKKREDYESQSNPVFRRYLNKILIEAGKLGLPDENKGDMHYDAEIILKRETLLEIQKFLNGEDWKPGALDDALSDILINFKFHDFETWKWRFEDSFGVDPYNVLMVLLCLLCIVVLVATELWTYVRWYTQLRRVLIISFLFSLGWNWMYLYKLAFAQHQAEVAKMEPLNNVCAKKMDWTGSIWEWFRSSWTYKDDPCQKYYELLLVNPIWLVPPTKALAVTFTTFVTEPLKHIGKGTGEFIKALMKEIPALLHLPVLIIMALAILSFCYGAGKSVHVLRHIGGPESEPPQALRPRDRRRQEEIDYRPDGGAGDADFHYRGQMGPTEQGPYAKTYEGRREILRERDVDLRFQTGNKSPEVLRAFDVPDAEAREHPTVVPSHKSPVLDTKPKETGGILGEGTPKESSTESSQSAKPVSGQDTSGNTEGSPAAEKAQLKSEAAGSPDQGSTYSPARGVAGPRGQDPVSSPCG

binding [4]: binds
B2: differentially tagged CLCC1 co-expressed in the same cells (protein, UniProt Q99LI2 19-539)
chain: HDDDWIDPTDMLNYDAASGTMRKSQVRSGTSEKKEVSPDSSEAEELSDCLHRLDSLTHKVDSCEKKKMKDYESQSNPVFRRYLNKILIEAGKLGLPDENKVEMRYDAEILLSRQTLLEIQKFLSGEEWKPGALDDALSDILINFKCHDSEAWKWQFEDYFGVDPYNVFMVLLCLLCLVVLVATELWTYVRWYTQMKRIFIISFLLSLAWNWIYLYKMAFAQHQANIAGMEPFDNLCAKKMDWTGSLWEWFTSSWTYKDDPCQKYYELLIVNPIWLVPPTKALAITFTNFVTEPLKHIGKGAGEFIKALMKEIPVLLQIPVLAILALAVLSFCYGAGRSVPMLRHFGGPDREPPRALEPDDRRRQKGLDYRLHGGAGDADFSYRGPAGSIEQGPYDKMHASKRDALRQRFHSGNKSPEVLRAFDLPDTEAQEHPEVVPSHKSPIMNTNLETGELPGESTPTEYSQSAKDVSGQVPSAGKSSPTVDKAQLKTDSECSPPGGCPPSKEAAVAAHGTEPVSSPCG

binding [5]: binds
B3: purified full-length CLCC1 (native gel) (protein, UniProt Q99LI2 19-539)
chain: HDDDWIDPTDMLNYDAASGTMRKSQVRSGTSEKKEVSPDSSEAEELSDCLHRLDSLTHKVDSCEKKKMKDYESQSNPVFRRYLNKILIEAGKLGLPDENKVEMRYDAEILLSRQTLLEIQKFLSGEEWKPGALDDALSDILINFKCHDSEAWKWQFEDYFGVDPYNVFMVLLCLLCLVVLVATELWTYVRWYTQMKRIFIISFLLSLAWNWIYLYKMAFAQHQANIAGMEPFDNLCAKKMDWTGSLWEWFTSSWTYKDDPCQKYYELLIVNPIWLVPPTKALAITFTNFVTEPLKHIGKGAGEFIKALMKEIPVLLQIPVLAILALAVLSFCYGAGRSVPMLRHFGGPDREPPRALEPDDRRRQKGLDYRLHGGAGDADFSYRGPAGSIEQGPYDKMHASKRDALRQRFHSGNKSPEVLRAFDLPDTEAQEHPEVVPSHKSPIMNTNLETGELPGESTPTEYSQSAKDVSGQVPSAGKSSPTVDKAQLKTDSECSPPGGCPPSKEAAVAAHGTEPVSSPCG
